# These are yes or no findings as the source states them, for the method shown. Binding seen in cells or lysates may run through a third protein. Some binding calls cover weakened binding; strength is not graded here.
# Protein sequences, listed by entry. Tags and fused reporters are not part of them.
# UniProt Q15910: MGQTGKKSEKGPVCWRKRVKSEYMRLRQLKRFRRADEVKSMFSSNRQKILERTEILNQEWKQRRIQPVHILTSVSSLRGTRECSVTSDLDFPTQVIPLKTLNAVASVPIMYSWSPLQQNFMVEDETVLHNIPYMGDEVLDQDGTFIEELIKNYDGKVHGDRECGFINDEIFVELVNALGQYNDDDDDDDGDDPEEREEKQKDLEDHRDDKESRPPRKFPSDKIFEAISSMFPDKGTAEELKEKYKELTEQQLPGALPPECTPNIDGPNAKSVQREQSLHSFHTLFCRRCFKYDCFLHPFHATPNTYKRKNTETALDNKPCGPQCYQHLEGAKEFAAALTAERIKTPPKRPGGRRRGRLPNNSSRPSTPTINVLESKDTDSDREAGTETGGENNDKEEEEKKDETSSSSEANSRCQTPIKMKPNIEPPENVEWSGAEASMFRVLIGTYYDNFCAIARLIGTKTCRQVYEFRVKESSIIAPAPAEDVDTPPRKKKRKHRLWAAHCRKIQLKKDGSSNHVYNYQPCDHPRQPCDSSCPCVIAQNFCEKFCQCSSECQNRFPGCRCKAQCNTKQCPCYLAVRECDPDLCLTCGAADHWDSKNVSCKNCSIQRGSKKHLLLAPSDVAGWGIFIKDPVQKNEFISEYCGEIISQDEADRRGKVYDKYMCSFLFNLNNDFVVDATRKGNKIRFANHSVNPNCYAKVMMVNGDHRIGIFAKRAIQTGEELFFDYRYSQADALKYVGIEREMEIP
# Target: enhancer of zeste homolog 2 (EZH2) (human (endogenous in the cultured cells; all cell lines of the paper are human)) (UniProt Q15910)
# Test: co-IP; cells lysed in RIPA buffer with protease inhibitors; supernatant incubated overnight at 4°C with anti-CDCA7, anti-EZH2 or IgG (negative control); protein A/G beads 1 h at 4°C; three washes with lysis buffer; western blot
binder,measurement,value
"cell division cycle-associated protein 7 (CDCA7) (protein, UniProt Q9BWT1 1-371) MDARRVPQKDLRVKKNLKKFRYVKLISMETSSSSDDSCDSFASDNFANTRLQSVREGCRTRSQCRHSGPLRVAMKFPARSTRGATNKKAESRQPSENSVTDSNSDSEDESGMNFLEKRALNIKQNKAMLAKLMSELESFPGSFRGRHPLPGSDSQSRRPRRRTFPGVASRRNPERRARPLTRSRSRILGSLDALPMEEEEEEDKYMLVRKRKTVDGYMNEDDLPRSRRSRSSVTLPHIIRPVEEITEEELENVCSNSREKIYNRSLGSTCHQCRQKTIDTKTNCRNPDCWGVRGQFCGPCLRNRYGEEVRDALLDPNWHCPPCRGICNCSFCRQRDGRCATGVLVYLAKYHGFGNVHAYLKSLKQEFEMQA",binding,binds

# — paper PMC8806772
